# Some of the results follow.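 Rule for the calls: active = dose-dependent thermal stabilisation significant by F-test of dose-response against flat model at 10% FDR; inactive = not significant.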
# Chains of the proteins cited; added tags and fusions are not shown. Lines headed by an entry give the natural chain unless they say otherwise; changes in a name come on top.
# UniProt P00390: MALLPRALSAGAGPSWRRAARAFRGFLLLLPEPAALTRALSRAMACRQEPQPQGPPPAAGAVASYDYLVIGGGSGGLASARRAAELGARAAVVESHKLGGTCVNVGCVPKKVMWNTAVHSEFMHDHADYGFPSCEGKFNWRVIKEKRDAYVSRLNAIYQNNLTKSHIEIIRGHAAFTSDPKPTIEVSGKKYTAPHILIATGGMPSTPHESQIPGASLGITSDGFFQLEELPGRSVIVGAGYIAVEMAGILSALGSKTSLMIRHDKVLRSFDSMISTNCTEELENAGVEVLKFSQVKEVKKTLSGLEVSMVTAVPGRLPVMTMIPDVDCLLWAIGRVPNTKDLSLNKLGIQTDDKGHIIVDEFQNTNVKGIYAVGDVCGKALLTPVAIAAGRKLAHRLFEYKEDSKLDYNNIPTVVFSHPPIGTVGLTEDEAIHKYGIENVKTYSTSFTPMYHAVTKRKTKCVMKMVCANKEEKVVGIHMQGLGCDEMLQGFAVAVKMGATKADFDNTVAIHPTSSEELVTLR
# UniProt O75146: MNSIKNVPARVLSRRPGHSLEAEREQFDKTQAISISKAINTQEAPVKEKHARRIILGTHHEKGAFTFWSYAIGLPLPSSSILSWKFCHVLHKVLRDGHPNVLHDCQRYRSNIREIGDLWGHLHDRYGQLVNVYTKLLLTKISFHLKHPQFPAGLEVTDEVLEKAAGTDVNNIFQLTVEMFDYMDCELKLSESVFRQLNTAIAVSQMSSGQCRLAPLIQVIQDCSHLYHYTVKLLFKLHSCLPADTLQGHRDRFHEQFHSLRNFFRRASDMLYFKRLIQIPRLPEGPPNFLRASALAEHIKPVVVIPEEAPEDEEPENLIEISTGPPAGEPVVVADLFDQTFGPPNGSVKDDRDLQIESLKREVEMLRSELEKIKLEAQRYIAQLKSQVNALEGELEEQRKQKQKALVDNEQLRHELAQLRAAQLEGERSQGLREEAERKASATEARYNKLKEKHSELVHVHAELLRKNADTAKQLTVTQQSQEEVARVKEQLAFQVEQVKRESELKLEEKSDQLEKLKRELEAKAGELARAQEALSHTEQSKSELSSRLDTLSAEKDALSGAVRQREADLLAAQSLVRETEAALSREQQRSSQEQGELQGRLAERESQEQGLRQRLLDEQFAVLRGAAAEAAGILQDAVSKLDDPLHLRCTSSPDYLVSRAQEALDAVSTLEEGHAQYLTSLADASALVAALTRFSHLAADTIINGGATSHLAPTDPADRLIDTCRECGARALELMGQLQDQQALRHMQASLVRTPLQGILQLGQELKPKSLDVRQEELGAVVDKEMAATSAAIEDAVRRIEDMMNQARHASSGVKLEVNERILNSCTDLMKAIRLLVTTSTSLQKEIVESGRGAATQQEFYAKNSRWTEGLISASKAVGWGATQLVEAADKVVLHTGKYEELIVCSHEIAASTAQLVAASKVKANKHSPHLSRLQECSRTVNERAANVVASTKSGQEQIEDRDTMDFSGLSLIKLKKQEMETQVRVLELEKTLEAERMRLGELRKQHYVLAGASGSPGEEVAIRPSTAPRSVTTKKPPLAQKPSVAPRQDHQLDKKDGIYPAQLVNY
# UniProt Q08378: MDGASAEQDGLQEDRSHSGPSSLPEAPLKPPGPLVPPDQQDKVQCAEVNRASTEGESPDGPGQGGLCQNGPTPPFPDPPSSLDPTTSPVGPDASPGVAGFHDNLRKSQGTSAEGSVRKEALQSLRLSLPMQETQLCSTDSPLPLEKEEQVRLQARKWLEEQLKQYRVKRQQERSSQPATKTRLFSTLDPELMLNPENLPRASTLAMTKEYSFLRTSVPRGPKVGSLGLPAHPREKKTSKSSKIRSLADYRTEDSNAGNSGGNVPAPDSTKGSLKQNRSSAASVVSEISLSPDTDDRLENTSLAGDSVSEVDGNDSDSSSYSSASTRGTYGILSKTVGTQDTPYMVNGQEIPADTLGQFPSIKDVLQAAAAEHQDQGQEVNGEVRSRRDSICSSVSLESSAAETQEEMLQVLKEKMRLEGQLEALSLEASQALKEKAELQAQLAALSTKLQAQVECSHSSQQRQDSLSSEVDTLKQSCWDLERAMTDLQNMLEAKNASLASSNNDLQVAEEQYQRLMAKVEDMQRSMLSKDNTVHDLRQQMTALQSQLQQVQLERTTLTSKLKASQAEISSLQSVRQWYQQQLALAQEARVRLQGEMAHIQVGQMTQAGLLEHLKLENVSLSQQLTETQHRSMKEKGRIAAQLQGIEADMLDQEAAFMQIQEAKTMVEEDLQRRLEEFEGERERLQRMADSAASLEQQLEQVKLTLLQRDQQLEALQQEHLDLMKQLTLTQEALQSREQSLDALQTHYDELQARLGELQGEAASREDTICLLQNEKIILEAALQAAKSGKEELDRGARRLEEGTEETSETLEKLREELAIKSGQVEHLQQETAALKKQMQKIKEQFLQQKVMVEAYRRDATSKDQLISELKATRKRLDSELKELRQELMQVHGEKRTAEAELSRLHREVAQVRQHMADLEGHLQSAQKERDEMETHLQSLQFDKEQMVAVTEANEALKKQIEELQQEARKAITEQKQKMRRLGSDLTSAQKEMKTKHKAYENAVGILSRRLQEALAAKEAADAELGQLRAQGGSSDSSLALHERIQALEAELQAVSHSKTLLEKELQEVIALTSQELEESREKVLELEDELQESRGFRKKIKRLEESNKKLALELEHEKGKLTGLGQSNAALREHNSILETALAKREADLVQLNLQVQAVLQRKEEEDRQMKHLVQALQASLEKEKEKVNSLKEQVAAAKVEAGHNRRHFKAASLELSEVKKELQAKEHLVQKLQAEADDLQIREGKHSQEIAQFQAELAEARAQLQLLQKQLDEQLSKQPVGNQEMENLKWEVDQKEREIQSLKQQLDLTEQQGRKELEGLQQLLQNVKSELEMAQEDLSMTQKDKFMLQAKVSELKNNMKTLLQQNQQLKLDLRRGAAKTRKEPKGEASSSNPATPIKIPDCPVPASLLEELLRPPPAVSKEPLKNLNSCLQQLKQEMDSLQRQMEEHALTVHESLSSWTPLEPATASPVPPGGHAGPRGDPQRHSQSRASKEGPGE
# UniProt P06865: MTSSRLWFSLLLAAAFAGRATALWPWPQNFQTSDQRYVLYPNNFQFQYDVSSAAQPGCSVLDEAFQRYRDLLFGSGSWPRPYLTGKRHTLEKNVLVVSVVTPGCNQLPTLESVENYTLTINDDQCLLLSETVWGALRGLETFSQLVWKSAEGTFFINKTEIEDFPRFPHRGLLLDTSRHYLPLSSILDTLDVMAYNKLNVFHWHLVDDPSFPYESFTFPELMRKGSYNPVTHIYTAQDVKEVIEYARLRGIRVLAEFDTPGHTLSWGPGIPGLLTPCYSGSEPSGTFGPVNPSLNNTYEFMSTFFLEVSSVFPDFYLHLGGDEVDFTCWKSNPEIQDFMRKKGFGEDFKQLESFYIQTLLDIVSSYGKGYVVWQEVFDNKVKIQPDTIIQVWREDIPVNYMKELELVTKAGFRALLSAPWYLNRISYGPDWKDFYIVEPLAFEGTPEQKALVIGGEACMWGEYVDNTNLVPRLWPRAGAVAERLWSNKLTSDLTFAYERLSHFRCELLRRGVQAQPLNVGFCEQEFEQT
# UniProt Q13283, whole entry, looked up: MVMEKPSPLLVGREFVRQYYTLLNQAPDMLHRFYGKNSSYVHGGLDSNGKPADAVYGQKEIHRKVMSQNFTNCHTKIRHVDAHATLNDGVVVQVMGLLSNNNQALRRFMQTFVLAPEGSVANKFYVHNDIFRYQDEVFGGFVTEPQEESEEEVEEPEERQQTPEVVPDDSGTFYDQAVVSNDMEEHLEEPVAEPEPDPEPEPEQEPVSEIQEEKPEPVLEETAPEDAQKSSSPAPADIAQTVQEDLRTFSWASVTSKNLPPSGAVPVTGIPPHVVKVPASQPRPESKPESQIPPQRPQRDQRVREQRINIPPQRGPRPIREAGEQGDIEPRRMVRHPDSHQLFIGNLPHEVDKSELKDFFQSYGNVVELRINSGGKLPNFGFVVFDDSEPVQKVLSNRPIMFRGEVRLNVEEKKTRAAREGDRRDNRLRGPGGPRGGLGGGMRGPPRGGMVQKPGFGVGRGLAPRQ
# UniProt O14979: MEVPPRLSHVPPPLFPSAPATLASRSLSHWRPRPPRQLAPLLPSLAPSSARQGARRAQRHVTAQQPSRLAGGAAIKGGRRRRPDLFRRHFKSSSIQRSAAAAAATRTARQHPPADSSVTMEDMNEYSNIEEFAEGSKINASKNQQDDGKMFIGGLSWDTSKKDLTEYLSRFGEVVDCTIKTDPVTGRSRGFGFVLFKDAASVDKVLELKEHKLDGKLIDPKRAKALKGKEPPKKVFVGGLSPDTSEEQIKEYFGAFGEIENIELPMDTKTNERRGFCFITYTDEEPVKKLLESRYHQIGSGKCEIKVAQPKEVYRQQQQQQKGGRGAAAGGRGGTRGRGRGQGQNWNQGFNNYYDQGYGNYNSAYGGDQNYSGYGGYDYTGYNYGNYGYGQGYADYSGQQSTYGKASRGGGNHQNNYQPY
# UniProt Q00341: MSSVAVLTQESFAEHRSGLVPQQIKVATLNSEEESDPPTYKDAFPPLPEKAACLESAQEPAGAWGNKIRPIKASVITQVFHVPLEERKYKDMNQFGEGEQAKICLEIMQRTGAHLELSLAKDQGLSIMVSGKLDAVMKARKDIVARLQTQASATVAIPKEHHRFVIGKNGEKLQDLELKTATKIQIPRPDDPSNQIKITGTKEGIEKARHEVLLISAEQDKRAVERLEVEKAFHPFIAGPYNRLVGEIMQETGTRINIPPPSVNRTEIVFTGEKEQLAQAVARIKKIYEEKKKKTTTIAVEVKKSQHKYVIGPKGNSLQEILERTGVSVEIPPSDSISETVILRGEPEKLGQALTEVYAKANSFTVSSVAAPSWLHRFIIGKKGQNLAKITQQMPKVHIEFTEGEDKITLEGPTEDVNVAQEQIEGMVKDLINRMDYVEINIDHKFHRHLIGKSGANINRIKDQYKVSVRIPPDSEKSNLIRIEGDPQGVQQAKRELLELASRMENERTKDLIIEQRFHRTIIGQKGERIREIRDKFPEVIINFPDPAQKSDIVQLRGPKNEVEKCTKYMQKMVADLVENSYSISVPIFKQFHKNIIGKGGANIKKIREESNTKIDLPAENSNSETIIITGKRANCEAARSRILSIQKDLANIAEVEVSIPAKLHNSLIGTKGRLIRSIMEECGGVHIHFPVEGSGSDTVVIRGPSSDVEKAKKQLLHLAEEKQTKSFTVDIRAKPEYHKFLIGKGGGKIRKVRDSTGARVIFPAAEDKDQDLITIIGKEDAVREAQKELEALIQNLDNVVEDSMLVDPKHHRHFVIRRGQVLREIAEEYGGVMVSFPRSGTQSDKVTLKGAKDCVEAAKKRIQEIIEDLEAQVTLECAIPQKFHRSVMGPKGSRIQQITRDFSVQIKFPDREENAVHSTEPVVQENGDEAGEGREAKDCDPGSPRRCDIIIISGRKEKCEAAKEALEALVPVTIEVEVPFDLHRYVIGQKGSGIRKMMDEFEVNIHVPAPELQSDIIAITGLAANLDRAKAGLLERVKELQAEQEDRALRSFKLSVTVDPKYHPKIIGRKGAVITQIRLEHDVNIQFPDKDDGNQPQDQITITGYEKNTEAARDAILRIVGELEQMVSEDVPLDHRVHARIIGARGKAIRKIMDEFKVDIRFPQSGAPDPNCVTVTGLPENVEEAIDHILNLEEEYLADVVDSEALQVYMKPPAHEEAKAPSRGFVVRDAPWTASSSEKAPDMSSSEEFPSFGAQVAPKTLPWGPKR
# UniProt Q92917: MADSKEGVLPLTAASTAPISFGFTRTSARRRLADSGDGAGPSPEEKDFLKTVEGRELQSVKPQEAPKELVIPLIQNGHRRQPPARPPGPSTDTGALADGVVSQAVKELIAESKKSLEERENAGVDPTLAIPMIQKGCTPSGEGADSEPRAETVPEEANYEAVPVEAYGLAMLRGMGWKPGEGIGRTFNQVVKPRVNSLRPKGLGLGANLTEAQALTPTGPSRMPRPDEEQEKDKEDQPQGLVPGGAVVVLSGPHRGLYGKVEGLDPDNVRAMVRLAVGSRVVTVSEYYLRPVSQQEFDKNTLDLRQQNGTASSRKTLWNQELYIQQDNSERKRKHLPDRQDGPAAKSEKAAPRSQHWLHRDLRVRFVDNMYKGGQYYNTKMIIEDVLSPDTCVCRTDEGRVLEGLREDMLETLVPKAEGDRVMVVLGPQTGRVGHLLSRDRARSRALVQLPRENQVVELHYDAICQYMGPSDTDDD
# UniProt Q00403, whole entry: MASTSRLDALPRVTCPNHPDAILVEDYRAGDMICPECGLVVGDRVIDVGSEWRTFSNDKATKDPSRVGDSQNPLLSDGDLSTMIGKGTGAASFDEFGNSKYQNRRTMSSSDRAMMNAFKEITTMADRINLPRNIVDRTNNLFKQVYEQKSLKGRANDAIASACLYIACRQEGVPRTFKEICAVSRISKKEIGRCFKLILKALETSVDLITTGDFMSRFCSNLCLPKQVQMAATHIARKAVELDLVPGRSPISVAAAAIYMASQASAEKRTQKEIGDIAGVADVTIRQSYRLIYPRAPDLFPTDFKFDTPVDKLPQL
# Compound: Nc1nc2c(ncn2[C@@H]2O[C@H](COP(=O)(O)OP(=O)(O)OP(=O)(O)O)[C@@H](O)[C@H]2O)c(=O)[nH]1
# Assay: dose-dependent thermal stabilisation call (2D-TPP, DLPTP, 10% FDR) (binary (1 = stabilised)); higher = stabilised by the compound
# Details: system: Jurkat gel-filtered lysate; concentration range 1-500 µM
row,Target,dose-dependent thermal stabilisation call
1,HAUS4 (UniProt Q9H6D7),inactive: 0
2,HELB (UniProt Q8NG08),inactive: 0
3,GDI2 (UniProt P50395),active: 1
4,GSN (UniProt P06396),inactive: 0
5,GSR (UniProt P00390),inactive: 0
6,GLUD1 (UniProt P00367),inactive: 0
7,GMNN (UniProt O75496),inactive: 0
8,GUK1 (UniProt Q16774),active: 1
9,GTF2F1 (UniProt P35269),inactive: 0
10,"HIST1H2AG, HIST1H2AI, HIST1H2AK, HIST1H2AL, HIST1H2AM (UniProt P0C0S8)",inactive: 0
11,GABARAPL1 (UniProt Q9H0R8),inactive: 0
12,HIP1R (UniProt O75146),inactive: 0
13,GORASP2 (UniProt Q9H8Y8),inactive: 0
14,GPN2 (UniProt Q9H9Y4),active: 1
15,HNRNPF (UniProt P52597),inactive: 0
16,HIBCH (UniProt Q6NVY1),inactive: 0
17,GOLGA3 (UniProt Q08378),inactive: 0
18,HNRNPH1 (UniProt P31943),inactive: 0

row,Target,dose-dependent thermal stabilisation call
1,HEXA (UniProt P06865),inactive: 0
2,G3BP1 (UniProt Q13283),inactive: 0
3,HDHD5 (UniProt Q9BXW7),inactive: 0
4,HAGH (UniProt Q16775),inactive: 0
5,GMPPB (UniProt Q9Y5P6),active: 1
6,GNB1L (UniProt Q9BYB4),inactive: 0
7,GRAP2 (UniProt O75791),active: 1
8,HACE1 (UniProt Q8IYU2),inactive: 0
9,HNRNPDL (UniProt O14979),inactive: 0
10,HDLBP (UniProt Q00341),active: 1
11,GPKOW (UniProt Q92917),active: 1
12,GTF2B (UniProt Q00403),active: 1
13,HECTD3 (UniProt Q5T447),inactive: 0
14,GSTZ1 (UniProt O43708),active: 1
15,GLCCI1 (UniProt Q86VQ1),inactive: 0
16,HELZ (UniProt P42694),inactive: 0
17,GIGYF2 (UniProt Q6Y7W6),inactive: 0
18,GABPA (UniProt Q06546),inactive: 0

# An excerpt of these results, as tab-separated lines:
row	Target	dose-dependent thermal stabilisation call
14	GSTZ1 (UniProt O43708)	active: 1
15	GLCCI1 (UniProt Q86VQ1)	inactive: 0
